Consider two substances from publication PMC3830446.

Protein sequences, listed by entry. Tags and fused reporters are not part of them.
UniProt P30086: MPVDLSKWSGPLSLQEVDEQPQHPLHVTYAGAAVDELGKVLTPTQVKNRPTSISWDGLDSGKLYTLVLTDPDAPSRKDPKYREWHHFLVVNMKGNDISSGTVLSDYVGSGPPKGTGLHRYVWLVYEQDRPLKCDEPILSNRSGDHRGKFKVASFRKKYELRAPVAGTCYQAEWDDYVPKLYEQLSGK
UniProt P62258: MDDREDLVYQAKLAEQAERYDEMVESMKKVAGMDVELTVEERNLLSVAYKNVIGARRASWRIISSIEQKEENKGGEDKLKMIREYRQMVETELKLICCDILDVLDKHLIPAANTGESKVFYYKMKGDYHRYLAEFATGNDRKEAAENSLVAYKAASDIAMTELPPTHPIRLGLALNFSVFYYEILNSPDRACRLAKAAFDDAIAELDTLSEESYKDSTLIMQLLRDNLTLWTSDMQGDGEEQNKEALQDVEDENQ
UniProt P08238: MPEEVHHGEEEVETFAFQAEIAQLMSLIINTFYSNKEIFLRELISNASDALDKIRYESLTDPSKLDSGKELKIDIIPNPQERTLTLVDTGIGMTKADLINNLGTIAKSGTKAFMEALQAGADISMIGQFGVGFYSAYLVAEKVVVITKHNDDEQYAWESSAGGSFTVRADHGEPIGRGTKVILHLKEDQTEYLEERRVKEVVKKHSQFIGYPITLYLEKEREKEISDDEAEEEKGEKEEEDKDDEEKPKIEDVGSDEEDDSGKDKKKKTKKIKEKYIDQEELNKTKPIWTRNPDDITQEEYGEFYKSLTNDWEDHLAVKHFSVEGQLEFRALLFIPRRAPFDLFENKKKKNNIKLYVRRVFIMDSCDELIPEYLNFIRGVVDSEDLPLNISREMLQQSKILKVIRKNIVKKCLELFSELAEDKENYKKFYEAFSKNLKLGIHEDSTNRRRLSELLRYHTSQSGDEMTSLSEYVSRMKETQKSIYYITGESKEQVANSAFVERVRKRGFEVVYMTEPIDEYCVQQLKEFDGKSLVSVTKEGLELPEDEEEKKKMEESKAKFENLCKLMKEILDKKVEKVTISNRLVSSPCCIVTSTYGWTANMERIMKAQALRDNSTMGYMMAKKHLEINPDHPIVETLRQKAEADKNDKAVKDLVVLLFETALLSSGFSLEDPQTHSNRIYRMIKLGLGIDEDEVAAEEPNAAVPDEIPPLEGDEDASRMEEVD

These are yes or no findings as the source states them, for the method shown. Binding seen in cells or lysates may run through a third protein. Some binding calls cover weakened binding; strength is not graded here.

In this assay the target is RAF kinase inhibitor protein (human (endogenous in SGC7901)) (UniProt P30086). Description: co-IP; total protein extract of SGC7901 cells precipitated with RKIP antibody and protein G-sepharose 4B beads, washed with TBST; Western blot with antibodies against HSP90, 14-3-3ϵ and keratin 8; non-immune IgY as negative control. For orientation: Immunoblotting shows a protein as a band on a membrane.

As for “14-3-3 protein epsilon (from UniProt P62258 1-255)”, the binding result is reported as “binds”. In the case of “Heat shock protein HSP 90-beta (from UniProt P08238 1-724)”, the binding entry was “binds”.
